The supplement of paper PMC12067093, “Discovery and optimisation of a covalent ligand for TRIM25 and its application to targeted protein ubiquitination” (Chemical Science, 2025)
The other results are listed elsewhere or left out.

Protein sequences, listed by entry. Tags and fused reporters are not part of them. Lines headed by an entry give the natural chain unless they say otherwise; changes in a name come on top.
UniProt P14550: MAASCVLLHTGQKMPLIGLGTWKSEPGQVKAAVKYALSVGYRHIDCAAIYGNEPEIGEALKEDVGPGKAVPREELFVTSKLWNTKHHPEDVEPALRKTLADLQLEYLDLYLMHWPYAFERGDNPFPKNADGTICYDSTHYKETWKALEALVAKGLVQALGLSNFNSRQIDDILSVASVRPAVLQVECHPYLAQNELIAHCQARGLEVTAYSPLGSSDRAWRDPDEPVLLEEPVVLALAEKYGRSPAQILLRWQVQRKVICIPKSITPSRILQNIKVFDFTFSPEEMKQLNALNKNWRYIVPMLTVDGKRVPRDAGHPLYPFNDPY
UniProt P13716: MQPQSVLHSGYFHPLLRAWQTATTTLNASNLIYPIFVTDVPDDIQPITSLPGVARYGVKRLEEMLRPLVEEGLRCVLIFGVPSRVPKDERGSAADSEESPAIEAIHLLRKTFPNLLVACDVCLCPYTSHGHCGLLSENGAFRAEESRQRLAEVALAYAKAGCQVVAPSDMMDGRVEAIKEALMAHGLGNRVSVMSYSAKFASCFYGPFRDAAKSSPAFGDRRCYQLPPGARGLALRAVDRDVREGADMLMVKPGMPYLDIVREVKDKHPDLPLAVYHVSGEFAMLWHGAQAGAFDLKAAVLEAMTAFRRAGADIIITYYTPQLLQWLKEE
UniProt O43865, whole entry, looked up: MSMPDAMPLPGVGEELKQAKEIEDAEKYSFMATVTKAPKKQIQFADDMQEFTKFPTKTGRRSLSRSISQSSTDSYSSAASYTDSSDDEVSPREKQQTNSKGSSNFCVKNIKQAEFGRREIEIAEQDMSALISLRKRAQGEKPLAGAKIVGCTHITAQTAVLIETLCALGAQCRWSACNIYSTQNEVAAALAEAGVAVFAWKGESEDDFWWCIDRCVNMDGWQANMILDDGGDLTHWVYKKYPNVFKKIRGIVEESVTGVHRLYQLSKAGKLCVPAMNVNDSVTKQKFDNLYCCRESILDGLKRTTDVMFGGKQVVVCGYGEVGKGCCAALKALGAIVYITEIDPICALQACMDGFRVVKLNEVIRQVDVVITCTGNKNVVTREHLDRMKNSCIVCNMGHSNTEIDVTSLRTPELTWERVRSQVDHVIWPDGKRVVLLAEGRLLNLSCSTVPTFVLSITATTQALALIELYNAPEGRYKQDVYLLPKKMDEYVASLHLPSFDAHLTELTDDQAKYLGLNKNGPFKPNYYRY
UniProt Q99996, whole entry, looked up: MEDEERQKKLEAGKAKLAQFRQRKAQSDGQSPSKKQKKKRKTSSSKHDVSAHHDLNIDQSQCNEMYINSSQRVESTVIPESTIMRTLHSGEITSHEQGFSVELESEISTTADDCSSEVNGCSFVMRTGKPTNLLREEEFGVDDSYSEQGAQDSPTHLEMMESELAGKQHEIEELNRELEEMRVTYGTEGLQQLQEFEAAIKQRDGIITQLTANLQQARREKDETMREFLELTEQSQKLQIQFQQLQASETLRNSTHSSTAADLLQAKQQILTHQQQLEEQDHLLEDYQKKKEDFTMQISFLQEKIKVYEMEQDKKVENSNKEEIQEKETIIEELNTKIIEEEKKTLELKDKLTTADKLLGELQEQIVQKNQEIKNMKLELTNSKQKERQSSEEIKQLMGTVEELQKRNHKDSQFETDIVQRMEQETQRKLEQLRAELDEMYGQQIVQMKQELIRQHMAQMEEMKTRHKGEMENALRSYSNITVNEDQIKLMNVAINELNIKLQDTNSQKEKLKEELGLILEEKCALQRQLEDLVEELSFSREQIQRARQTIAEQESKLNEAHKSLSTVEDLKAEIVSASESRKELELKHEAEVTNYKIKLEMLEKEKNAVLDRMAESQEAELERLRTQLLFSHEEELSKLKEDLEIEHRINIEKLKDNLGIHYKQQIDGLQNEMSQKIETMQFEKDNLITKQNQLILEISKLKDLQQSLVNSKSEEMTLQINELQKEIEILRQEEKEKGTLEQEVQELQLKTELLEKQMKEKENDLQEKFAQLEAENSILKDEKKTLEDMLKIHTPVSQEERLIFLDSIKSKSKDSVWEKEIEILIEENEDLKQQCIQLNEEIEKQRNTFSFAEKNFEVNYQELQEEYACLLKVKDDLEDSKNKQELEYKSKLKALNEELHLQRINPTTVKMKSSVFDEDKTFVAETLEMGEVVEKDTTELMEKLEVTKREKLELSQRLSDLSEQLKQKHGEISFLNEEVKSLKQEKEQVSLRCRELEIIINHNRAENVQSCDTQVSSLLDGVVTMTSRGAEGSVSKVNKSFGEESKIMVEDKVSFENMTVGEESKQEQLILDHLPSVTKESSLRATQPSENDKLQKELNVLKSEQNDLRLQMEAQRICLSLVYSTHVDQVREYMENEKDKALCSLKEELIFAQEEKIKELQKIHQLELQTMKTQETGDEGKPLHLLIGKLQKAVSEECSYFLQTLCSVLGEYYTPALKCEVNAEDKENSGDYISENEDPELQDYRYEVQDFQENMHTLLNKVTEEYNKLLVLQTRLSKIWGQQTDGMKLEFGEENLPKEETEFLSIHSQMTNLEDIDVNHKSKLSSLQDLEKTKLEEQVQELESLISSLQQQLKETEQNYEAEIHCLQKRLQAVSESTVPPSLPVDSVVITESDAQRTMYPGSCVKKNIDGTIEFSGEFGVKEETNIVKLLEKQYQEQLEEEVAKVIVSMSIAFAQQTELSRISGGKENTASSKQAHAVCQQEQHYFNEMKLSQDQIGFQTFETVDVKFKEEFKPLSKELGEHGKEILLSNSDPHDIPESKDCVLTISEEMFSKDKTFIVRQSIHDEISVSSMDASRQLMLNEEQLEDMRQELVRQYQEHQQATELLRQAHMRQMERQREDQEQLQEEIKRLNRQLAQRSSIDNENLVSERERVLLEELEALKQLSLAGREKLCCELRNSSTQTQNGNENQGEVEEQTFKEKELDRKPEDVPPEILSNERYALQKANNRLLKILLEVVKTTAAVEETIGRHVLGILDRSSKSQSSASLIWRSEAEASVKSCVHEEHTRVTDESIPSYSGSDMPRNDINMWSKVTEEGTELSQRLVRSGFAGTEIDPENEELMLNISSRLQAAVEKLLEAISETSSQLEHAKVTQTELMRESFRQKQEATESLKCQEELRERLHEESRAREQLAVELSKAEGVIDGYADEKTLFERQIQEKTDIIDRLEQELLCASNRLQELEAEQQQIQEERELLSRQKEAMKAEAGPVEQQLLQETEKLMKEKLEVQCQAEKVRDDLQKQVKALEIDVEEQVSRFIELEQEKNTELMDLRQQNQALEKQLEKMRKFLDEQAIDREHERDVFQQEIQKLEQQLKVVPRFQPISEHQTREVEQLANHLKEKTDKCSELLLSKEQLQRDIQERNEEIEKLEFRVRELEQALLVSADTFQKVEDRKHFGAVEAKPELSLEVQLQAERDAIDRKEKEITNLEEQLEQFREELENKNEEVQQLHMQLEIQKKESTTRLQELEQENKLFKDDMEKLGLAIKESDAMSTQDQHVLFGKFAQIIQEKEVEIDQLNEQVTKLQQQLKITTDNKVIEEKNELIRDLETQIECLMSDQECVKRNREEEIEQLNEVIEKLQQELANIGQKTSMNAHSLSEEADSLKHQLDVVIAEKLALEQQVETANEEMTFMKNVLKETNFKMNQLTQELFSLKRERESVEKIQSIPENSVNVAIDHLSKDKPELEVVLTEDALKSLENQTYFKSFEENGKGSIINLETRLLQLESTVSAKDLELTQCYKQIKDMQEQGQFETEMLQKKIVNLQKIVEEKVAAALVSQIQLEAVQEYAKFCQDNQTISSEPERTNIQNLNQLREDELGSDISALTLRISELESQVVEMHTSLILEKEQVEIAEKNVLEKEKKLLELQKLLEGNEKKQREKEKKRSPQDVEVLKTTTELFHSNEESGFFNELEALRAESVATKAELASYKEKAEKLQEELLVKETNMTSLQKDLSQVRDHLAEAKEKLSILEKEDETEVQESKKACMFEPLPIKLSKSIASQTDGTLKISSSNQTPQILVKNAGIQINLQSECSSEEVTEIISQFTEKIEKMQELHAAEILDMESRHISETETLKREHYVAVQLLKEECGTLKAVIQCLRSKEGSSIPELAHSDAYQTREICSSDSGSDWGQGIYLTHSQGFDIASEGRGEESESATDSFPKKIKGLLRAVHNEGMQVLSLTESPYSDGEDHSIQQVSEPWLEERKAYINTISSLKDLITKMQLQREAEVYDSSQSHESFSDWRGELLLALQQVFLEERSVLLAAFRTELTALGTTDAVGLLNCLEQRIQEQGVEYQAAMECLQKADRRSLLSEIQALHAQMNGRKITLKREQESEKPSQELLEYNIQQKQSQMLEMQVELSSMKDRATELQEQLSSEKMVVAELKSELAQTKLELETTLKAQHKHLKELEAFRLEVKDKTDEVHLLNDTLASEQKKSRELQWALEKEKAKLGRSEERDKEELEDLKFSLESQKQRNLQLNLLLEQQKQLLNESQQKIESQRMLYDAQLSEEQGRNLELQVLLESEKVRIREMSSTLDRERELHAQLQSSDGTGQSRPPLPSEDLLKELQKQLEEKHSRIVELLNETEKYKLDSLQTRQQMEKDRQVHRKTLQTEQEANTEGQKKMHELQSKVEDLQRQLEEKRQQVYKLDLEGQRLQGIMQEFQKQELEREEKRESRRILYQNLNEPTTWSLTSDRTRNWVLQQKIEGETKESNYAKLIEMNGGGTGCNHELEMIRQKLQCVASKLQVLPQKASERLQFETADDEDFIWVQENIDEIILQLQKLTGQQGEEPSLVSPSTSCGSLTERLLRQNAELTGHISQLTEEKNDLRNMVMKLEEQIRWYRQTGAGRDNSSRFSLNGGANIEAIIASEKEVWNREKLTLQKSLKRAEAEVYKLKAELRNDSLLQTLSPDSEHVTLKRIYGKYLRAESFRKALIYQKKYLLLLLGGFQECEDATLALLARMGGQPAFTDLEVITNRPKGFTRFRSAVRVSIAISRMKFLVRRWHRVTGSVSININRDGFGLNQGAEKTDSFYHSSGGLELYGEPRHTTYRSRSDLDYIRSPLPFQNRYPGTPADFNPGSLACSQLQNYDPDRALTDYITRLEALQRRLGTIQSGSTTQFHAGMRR
UniProt P04075: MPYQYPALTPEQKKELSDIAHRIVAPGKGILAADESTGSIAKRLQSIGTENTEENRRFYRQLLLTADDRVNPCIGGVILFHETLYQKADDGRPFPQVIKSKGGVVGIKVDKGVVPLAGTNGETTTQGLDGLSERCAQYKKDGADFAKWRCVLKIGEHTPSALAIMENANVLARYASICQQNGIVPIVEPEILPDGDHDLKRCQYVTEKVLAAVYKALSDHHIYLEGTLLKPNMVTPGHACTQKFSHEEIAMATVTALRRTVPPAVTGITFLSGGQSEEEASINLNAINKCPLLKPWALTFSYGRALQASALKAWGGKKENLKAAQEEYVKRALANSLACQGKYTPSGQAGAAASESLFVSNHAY
UniProt O00116: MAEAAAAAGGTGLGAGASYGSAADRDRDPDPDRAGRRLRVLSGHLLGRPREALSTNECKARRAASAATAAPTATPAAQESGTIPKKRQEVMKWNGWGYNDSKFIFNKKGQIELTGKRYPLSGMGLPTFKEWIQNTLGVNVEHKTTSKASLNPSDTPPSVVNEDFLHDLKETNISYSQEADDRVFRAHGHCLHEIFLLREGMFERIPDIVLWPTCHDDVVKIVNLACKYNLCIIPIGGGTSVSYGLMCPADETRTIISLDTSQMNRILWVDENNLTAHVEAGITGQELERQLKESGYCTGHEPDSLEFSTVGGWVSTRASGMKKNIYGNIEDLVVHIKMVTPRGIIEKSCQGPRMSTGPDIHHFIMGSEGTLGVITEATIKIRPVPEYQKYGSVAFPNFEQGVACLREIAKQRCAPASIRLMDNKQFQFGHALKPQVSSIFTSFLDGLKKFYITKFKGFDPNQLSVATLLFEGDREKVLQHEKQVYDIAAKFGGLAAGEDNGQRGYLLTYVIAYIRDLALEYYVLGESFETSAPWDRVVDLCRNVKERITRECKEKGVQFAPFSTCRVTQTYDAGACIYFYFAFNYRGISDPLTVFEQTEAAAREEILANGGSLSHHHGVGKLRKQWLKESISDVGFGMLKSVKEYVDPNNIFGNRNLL
UniProt Q9UHK6: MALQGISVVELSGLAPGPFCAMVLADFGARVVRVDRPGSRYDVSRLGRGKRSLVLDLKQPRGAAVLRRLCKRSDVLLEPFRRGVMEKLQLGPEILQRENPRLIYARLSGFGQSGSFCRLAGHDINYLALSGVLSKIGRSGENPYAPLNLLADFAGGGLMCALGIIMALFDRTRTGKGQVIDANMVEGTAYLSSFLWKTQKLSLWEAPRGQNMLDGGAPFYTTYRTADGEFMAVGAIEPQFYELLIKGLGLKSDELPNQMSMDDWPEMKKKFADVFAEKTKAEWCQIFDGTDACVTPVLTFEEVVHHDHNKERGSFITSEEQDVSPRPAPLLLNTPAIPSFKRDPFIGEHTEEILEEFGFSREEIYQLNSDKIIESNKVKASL

Compound: CC1Cc2ccccc2N1C(=O)C1CCCN(C1)C(=O)CCl (mixture of isomers) [TRIM25 ligand 11 (diastereomer mixture)]
Experiment: probe-labelled cysteine peptide fold change vs DMSO (competition) (log2 fold change); higher = less target engagement (more negative = stronger competition)
Conditions: THP-1, incubation time: 4 h
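Further: competitive chemoproteomic profiling in live THP-1 cells with an iodoacetamide desthiobiotin (IA-DTB) probe, comparing probe-labelled peptide intensities in compound-treated cells against DMSO-treated controls.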

In the case of “AKR1A1_P14550_134_NADGTICYDSTHYK (UniProt P14550)”, the “probe-labelled cysteine peptide fold change” value (10 µM) is reported as 0.0816 and the “probe-labelled cysteine peptide fold change” value (50 µM) is reported as -0.0691.
In the case of “AKR7A2_O43488_132_LQCPQVDLFYLHAPDHGTPVEETLHACQR (UniProt O43488)”, the “probe-labelled cysteine peptide fold change” value (10 µM) is reported as 0.0379 and the “probe-labelled cysteine peptide fold change” value (50 µM) is reported as 0.339.
“AIFM1_O95831_441_SNIWVAGDAACFYDIK (UniProt O95831)” was tested, and the “probe-labelled cysteine peptide fold change” value (10 µM) was -0.0697 and the “probe-labelled cysteine peptide fold change” value (50 µM) was 0.0312.
In the case of “ALAD_P13716_162_AGCQVVAPSDMMDGRVEAIK (UniProt P13716)”, the “probe-labelled cysteine peptide fold change” value (10 µM) is reported as -0.259 and the “probe-labelled cysteine peptide fold change” value (50 µM) is reported as -0.214.
In the case of “AHCYL1_O43865_272_LCVPAMNVNDSVTK (UniProt O43865)”, the “probe-labelled cysteine peptide fold change” value (10 µM) is reported as 0.0544 and the “probe-labelled cysteine peptide fold change” value (50 µM) is reported as -0.00579.
In the case of “AKAP9_Q99996_2877_AVIQCLR (UniProt Q99996)”, the “probe-labelled cysteine peptide fold change” value (10 µM) is reported as -0.0679 and the “probe-labelled cysteine peptide fold change” value (50 µM) is reported as 0.072.
For “ALDH1L2_Q3SY69_472_TYDTINPTDGSTICK (UniProt Q3SY69)”, the “probe-labelled cysteine peptide fold change” value (10 µM) was 0.162 and the “probe-labelled cysteine peptide fold change” value (50 µM) was 0.131.
For “ALCAM_Q13740_435_TIICHVEGFPK (UniProt Q13740)”, the “probe-labelled cysteine peptide fold change” value (10 µM) was 0.0685 and the “probe-labelled cysteine peptide fold change” value (50 µM) was 0.223.
For “ANGEL2_Q5VTE6_305_IPYAACPAICVANTHLLYNPR (UniProt Q5VTE6)”, the “probe-labelled cysteine peptide fold change” value (10 µM) was -0.0433 and the “probe-labelled cysteine peptide fold change” value (50 µM) was -0.0347.
With “ALDH9A1_P49189_289_GALMANFLTQGQVCCNGTR (UniProt P49189)” the “probe-labelled cysteine peptide fold change” value (10 µM) was -0.0386 and the “probe-labelled cysteine peptide fold change” value (50 µM) was -0.039.
With “AKAP1_Q92667_102_LPAEPPALLQTHPPCR (UniProt Q92667)” the “probe-labelled cysteine peptide fold change” value (10 µM) was -0.0712 and the “probe-labelled cysteine peptide fold change” value (50 µM) was -0.0529.
With “AGO2_Q9UKV8_272_VEITHCGQMK (UniProt Q9UKV8)” the “probe-labelled cysteine peptide fold change” value (10 µM) was 0.0349 and the “probe-labelled cysteine peptide fold change” value (50 µM) was 0.0184.
For “ALG1_Q9BT22_317_FEQLTLDGHNLPSLVCVITGK (UniProt Q9BT22)”, the “probe-labelled cysteine peptide fold change” value (10 µM) was 0.109 and the “probe-labelled cysteine peptide fold change” value (50 µM) was 0.159.
“ALDOA_P04075_202_RCQYVTEK (UniProt P04075)” was tested, and the “probe-labelled cysteine peptide fold change” value (10 µM) was 0.0665 and the “probe-labelled cysteine peptide fold change” value (50 µM) was 0.183.
For “AGPS_O00116_247_YNLCIIPIGGGTSVSYGLMCPADETR (UniProt O00116)”, the “probe-labelled cysteine peptide fold change” value (10 µM) was -0.152 and the “probe-labelled cysteine peptide fold change” value (50 µM) was -0.023.
For “AKAP8_O43823_173_NGSFGGQYSECR (UniProt O43823)”, the “probe-labelled cysteine peptide fold change” value (10 µM) was -0.0788 and the “probe-labelled cysteine peptide fold change” value (50 µM) was -0.16.
“ANAPC2_Q9UJX6_394_LLHPGVNTCDIITLYISAIK (UniProt Q9UJX6)” was tested, and the “probe-labelled cysteine peptide fold change” value (10 µM) was 0.172 and the “probe-labelled cysteine peptide fold change” value (50 µM) was -0.0274.
In the case of “ANAPC1_Q9H1A4_575_LHDSLYNEDCTFQQLGTYIHSIRDPVHNR (UniProt Q9H1A4)”, the “probe-labelled cysteine peptide fold change” value (10 µM) is reported as 0.233 and the “probe-labelled cysteine peptide fold change” value (50 µM) is reported as -0.00527.
For “AHCYL1_O43865_215_CVNMDGWQANMILDDGGDLTHWVYKK (UniProt O43865)”, the “probe-labelled cysteine peptide fold change” value (10 µM) was -0.0274 and the “probe-labelled cysteine peptide fold change” value (50 µM) was -0.0471.
In the case of “ALDH6A1_Q02252_86_AEMDAAIASCK (UniProt Q02252)”, the “probe-labelled cysteine peptide fold change” value (10 µM) is reported as 0.0424 and the “probe-labelled cysteine peptide fold change” value (50 µM) is reported as -0.104.
For “AKR1B1_P15121_187_YKPAVNQIECHPYLTQEK (UniProt P15121)”, the “probe-labelled cysteine peptide fold change” value (10 µM) was 0.00538 and the “probe-labelled cysteine peptide fold change” value (50 µM) was -0.0454.
With “AKAP9_Q99996_1954_TDIIDRLEQELLCASNR (UniProt Q99996)” the “probe-labelled cysteine peptide fold change” value (10 µM) was 0.0046 and the “probe-labelled cysteine peptide fold change” value (50 µM) was -0.0214.
With “AGL_P35573_957_NDLGHPFCNNLR (UniProt P35573)” the “probe-labelled cysteine peptide fold change” value (10 µM) was 0.00062 and the “probe-labelled cysteine peptide fold change” value (50 µM) was -0.0293.
With “AKAP9_Q99996_2868_EECGTLK (UniProt Q99996)” the “probe-labelled cysteine peptide fold change” value (10 µM) was -0.119 and the “probe-labelled cysteine peptide fold change” value (50 µM) was 0.0501.
With “ALAD_P13716_162_AGCQVVAPSDMMDGR (UniProt P13716)” the “probe-labelled cysteine peptide fold change” value (10 µM) was -0.0192 and the “probe-labelled cysteine peptide fold change” value (50 µM) was -0.0881.
“ALDH4A1_P30038_315_LAGECGGK (UniProt P30038)” was tested, and the “probe-labelled cysteine peptide fold change” value (10 µM) was -0.132 and the “probe-labelled cysteine peptide fold change” value (50 µM) was 0.0892.
With “ALDH16A1_Q8IZ83_39_CLGHYVNGK (UniProt Q8IZ83)” the “probe-labelled cysteine peptide fold change” value (10 µM) was 0.00997 and the “probe-labelled cysteine peptide fold change” value (50 µM) was -0.0413.
For “ANAPC7_Q9UJX3_329_EGRLEDVENLGCR (UniProt Q9UJX3)”, the “probe-labelled cysteine peptide fold change” value (10 µM) was -0.15 and the “probe-labelled cysteine peptide fold change” value (50 µM) was -0.00267.
“ALDOA_P04075_240_ALSDHHIYLEGTLLKPNMVTPGHACTQK (UniProt P04075)” was tested, and the “probe-labelled cysteine peptide fold change” value (10 µM) was 0.0583 and the “probe-labelled cysteine peptide fold change” value (50 µM) was -0.178.
With “AGPS_O00116_226_IVNLACK (UniProt O00116)” the “probe-labelled cysteine peptide fold change” value (10 µM) was 0.221 and the “probe-labelled cysteine peptide fold change” value (50 µM) was 0.311.
In the case of “AMACR_Q9UHK6_117_LSGFGQSGSFCR (UniProt Q9UHK6)”, the “probe-labelled cysteine peptide fold change” value (10 µM) is reported as 0.105 and the “probe-labelled cysteine peptide fold change” value (50 µM) is reported as -0.0201.
In the case of “ANKFY1_Q9P2R3_1060_GNANLCR (UniProt Q9P2R3)”, the “probe-labelled cysteine peptide fold change” value (10 µM) is reported as -0.1 and the “probe-labelled cysteine peptide fold change” value (50 µM) is reported as 0.0369.
In the case of “ALDH18A1_P54886_674_TEYGDLELCIEVVDNVQDAIDHIHK (UniProt P54886)”, the “probe-labelled cysteine peptide fold change” value (10 µM) is reported as 0.122 and the “probe-labelled cysteine peptide fold change” value (50 µM) is reported as 0.0867.
In the case of “AIMP2_Q13155_306_SCENLAPFNTALK (UniProt Q13155)”, the “probe-labelled cysteine peptide fold change” value (10 µM) is reported as -0.114 and the “probe-labelled cysteine peptide fold change” value (50 µM) is reported as -0.131.
With “ALKBH1_Q13686_371_DISTEGFCHLDDQNSEVKR (UniProt Q13686)” the “probe-labelled cysteine peptide fold change” value (10 µM) was 0.197 and the “probe-labelled cysteine peptide fold change” value (50 µM) was -0.192.
In the case of “AKR1A1_P14550_46_HIDCAAIYGNEPEIGEALK (UniProt P14550)”, the “probe-labelled cysteine peptide fold change” value (10 µM) is reported as 0.0451 and the “probe-labelled cysteine peptide fold change” value (50 µM) is reported as 0.0223.
